The list shows a part of the results.
Experiments:
Assay in all cases: log2 fold change, soluble protein after heating vs DMSO (PISA); higher = thermal stabilisation; K562 lysate, 10 uM; active = over 0.2 and 3.5 SD of the protein, either way, in both replicates (recomputed)
[1] = compound: Cc1cn(-c2cc(NC(=O)c3ccc(C)c(Nc4nccc(-c5cccnc5)n4)c3)cc(C(F)(F)F)c2)cn1 [nilotinib]
How it was run: (§1)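 Pellets of K562 cells were dounce-homogenised in PBS pH 7.4 with 1 mM MgCl2, and the crude extract was held at 1 mg/mL protein for a 30 min treatment with 10 μM compound. Aliquots were heated for 3 min over 48°C-58°C and pooled before NP-40 was added to 0.5% at 4°C. The supernatant from 21,000xg for 90 min was quantified by TMTpro 16plex LC-MS/MS with channel sums equalised. Values are reported from duplicates as log-two fold change in thermal stability relative to solvent controls.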

The chains behind the UniProt entries cited, without tags or fusion partners. Where a name states a change or a piece, a line headed by the entry shows the natural chain unless it says otherwise.
UniProt O75970: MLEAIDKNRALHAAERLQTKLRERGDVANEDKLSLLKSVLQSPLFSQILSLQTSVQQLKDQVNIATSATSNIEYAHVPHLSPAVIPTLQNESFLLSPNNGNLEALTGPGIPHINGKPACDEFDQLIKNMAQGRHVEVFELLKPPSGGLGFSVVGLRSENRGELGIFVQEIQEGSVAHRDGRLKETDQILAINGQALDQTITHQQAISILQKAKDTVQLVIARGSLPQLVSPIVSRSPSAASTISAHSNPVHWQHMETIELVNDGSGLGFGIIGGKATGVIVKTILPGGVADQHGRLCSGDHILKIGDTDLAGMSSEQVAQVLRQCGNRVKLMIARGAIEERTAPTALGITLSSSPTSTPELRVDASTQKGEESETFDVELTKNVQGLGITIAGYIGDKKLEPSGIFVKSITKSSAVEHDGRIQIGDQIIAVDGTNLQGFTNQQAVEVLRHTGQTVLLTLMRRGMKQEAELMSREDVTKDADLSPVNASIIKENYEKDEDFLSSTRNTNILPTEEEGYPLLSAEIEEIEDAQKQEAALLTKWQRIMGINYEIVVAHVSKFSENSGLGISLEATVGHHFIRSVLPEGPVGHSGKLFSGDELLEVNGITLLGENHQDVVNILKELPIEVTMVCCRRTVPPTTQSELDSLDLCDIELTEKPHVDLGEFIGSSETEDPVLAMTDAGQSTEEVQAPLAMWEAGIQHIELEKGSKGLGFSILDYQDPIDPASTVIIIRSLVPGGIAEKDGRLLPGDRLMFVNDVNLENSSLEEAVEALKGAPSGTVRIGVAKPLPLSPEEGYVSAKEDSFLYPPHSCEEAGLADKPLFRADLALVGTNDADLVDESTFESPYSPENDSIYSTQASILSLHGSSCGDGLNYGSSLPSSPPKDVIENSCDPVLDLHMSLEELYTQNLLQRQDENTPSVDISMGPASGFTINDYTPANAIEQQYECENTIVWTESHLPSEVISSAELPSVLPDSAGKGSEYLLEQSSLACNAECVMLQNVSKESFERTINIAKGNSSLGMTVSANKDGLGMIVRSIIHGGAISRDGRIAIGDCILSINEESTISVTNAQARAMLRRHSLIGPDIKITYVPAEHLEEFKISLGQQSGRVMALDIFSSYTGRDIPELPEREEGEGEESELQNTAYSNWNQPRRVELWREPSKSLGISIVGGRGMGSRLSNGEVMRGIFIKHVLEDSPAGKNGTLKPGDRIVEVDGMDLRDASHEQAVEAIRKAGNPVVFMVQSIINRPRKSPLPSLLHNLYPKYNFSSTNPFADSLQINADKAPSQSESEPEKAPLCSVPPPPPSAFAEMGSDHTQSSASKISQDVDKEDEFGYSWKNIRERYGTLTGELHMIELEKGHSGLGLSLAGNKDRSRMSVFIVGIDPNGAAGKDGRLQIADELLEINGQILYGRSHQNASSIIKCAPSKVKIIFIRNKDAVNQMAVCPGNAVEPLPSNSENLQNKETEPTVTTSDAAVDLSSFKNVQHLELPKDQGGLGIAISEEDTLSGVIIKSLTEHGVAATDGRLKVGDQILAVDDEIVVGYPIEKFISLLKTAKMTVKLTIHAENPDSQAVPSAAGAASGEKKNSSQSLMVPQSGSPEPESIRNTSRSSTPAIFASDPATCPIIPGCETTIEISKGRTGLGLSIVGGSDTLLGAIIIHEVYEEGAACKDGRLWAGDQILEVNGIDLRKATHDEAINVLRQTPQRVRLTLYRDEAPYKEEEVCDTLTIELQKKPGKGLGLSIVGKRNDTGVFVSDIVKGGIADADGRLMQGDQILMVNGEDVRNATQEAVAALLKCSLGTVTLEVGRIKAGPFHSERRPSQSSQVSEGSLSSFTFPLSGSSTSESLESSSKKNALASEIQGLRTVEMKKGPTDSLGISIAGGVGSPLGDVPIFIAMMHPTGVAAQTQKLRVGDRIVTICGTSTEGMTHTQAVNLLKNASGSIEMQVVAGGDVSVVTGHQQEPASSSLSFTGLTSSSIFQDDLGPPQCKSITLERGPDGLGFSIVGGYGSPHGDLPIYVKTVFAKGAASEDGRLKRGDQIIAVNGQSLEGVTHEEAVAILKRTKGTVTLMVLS
UniProt Q9BPX6: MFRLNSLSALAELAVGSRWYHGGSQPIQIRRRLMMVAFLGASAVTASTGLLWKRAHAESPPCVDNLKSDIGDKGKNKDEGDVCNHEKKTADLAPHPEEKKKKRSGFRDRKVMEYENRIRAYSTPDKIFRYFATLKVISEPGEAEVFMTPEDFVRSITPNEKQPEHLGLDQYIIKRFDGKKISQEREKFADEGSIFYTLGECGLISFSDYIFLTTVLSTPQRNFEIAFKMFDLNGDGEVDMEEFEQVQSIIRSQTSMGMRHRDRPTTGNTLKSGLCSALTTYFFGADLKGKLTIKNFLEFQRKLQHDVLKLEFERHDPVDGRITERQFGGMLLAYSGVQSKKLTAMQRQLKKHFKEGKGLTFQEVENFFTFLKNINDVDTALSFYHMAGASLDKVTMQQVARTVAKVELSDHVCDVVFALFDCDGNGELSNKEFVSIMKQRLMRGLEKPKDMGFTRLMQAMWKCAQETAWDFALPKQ
UniProt Q03111: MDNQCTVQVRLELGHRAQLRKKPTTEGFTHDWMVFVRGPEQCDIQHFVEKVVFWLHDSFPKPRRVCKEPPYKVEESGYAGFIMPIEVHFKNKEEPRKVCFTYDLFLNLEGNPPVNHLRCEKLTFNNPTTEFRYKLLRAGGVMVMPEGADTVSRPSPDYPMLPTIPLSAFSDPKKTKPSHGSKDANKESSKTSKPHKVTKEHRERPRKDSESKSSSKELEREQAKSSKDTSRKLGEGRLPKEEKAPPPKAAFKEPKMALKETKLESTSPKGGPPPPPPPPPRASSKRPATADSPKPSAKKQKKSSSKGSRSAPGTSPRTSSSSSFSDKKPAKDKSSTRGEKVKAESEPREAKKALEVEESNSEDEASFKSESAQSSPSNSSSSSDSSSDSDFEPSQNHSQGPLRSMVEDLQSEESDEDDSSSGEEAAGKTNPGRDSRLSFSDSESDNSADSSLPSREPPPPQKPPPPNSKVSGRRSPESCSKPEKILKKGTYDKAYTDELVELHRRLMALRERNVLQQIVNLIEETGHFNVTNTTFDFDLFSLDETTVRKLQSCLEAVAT
UniProt Q7L1V2: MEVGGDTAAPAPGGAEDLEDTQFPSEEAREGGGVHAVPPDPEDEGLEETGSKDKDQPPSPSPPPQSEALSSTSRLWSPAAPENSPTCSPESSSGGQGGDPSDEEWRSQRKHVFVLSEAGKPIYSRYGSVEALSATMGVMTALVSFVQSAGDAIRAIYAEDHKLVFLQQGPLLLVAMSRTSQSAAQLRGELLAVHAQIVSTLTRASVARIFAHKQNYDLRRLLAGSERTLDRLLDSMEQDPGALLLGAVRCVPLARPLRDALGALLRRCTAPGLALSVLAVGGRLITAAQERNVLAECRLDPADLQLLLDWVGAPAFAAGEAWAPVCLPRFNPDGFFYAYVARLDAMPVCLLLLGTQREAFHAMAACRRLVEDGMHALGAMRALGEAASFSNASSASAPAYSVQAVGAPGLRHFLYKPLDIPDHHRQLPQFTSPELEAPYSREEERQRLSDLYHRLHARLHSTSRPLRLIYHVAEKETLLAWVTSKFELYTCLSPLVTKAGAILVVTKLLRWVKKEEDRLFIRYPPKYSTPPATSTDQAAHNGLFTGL
UniProt Q9BWT6: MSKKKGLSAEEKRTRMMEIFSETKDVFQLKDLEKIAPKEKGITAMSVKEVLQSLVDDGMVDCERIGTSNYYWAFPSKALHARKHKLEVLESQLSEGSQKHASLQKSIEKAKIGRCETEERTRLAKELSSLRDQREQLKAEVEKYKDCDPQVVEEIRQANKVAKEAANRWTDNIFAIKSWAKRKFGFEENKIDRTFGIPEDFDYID
UniProt Q13064: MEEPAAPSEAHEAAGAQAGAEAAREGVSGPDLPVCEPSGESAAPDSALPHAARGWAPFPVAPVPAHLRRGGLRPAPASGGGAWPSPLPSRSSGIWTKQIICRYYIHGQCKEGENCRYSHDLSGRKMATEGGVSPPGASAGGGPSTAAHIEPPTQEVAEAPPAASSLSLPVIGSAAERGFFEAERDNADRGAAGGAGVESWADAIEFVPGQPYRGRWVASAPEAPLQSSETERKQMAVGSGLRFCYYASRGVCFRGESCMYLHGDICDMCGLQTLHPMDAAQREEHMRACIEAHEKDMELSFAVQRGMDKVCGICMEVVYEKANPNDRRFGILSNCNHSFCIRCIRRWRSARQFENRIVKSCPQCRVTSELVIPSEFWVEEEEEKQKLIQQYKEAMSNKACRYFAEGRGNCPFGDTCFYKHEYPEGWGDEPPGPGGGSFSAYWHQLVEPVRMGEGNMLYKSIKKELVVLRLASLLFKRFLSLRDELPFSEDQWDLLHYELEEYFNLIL
UniProt Q9BVC4, whole entry, looked up: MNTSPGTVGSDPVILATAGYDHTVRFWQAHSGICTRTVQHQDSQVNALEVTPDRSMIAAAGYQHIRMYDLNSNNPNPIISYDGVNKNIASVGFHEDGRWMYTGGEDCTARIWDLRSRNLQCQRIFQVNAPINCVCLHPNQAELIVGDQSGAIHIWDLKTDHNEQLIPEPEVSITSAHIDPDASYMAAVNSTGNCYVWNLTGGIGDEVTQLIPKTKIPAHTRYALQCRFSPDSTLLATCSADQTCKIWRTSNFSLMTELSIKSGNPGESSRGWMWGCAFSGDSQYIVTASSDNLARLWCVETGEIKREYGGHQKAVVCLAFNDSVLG
UniProt Q5JRA6: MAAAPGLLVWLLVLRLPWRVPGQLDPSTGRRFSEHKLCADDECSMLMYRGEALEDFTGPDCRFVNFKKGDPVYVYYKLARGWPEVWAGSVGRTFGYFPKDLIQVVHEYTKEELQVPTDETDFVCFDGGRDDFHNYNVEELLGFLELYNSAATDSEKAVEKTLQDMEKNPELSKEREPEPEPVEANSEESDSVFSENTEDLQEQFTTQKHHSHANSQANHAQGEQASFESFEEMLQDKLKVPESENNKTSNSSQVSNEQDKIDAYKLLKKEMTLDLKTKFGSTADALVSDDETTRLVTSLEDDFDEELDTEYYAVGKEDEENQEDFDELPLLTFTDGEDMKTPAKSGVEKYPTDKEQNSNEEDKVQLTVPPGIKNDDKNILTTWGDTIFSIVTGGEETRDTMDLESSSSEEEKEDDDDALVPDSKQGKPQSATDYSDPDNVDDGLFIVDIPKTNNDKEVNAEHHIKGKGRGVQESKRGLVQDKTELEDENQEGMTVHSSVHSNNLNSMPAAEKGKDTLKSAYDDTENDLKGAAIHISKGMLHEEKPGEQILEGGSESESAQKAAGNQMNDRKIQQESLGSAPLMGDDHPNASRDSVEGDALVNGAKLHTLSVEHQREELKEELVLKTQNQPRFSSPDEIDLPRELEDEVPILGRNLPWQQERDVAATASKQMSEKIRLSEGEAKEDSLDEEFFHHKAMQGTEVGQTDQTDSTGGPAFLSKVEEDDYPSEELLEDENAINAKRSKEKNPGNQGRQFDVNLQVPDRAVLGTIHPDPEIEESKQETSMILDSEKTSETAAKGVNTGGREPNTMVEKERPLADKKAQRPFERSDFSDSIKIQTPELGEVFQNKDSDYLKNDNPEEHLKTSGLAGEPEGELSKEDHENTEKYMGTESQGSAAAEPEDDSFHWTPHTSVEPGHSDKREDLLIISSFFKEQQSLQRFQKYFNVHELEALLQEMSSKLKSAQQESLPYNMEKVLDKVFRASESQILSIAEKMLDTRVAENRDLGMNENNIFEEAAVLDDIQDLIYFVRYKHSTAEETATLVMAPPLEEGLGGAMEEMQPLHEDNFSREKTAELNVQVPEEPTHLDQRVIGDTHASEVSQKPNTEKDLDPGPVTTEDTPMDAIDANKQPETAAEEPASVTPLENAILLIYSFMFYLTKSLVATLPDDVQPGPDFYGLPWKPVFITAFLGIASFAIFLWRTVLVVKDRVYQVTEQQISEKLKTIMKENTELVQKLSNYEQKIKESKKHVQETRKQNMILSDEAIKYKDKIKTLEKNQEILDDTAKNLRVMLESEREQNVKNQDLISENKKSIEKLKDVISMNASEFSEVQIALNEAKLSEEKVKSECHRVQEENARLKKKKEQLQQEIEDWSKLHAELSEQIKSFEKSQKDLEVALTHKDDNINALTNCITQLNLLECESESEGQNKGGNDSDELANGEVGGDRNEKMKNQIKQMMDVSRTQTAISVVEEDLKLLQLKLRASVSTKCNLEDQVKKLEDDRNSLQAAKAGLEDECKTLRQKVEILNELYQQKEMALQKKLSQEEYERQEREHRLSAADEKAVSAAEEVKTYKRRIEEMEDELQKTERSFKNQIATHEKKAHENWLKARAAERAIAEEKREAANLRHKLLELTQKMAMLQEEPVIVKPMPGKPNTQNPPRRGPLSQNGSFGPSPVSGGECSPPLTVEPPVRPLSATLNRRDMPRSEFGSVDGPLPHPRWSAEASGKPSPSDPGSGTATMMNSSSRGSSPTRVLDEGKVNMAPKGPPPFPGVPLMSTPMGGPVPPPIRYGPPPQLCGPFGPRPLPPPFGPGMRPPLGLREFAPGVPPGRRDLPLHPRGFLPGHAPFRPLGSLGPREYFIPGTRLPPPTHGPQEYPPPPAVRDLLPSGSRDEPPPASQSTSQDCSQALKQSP

[2] = compound: Cc1nc(Nc2n[nH]c3c2CN(C(=O)N[C@H](CN(C)C)c2ccccc2)C3(C)C)c2sccc2n1
How it was run: as §1

[3] = compound: Cc1nc(Nc2ncc(C(=O)Nc3c(C)cccc3Cl)s2)cc(N2CCN(CCO)CC2)n1 [dasatinib]
How it was run: as §1

[4] = compound: Cc1ncc(-c2ccnc(Nc3ccc(S(C)(=O)=O)cc3)n2)n1C(C)C
How it was run: as §1

[5] = compound: Cn1cc(-c2ccc3c(c2)CCN3C(=O)Cc2cccc(C(F)(F)F)c2)c2c(N)ncnc21
How it was run: as §1

[6] = compound: Cn1cc(CNCC2CCN(c3ncc(C(=O)NO)cn3)CC2)c2ccccc21 [quisinostat]
How it was run: as §1

[7] = compound: Cn1cncc1[C@@](N)(c1ccc(Cl)cc1)c1ccc2c(c1)c(-c1cccc(Cl)c1)cc(=O)n2C [tipifarnib]
How it was run: as §1

[8] = compound: NC(=O)Nc1cc(-c2cccc(F)c2)sc1C(=O)N[C@H]1CCCNC1
How it was run: as §1

[9] = compound: NC(=O)c1cnc(N[C@@H]2CCCC[C@@H]2N)nc1Nc1cccc(-n2nccn2)c1
How it was run: as §1

[10] = compound: NC1(c2ccc(-c3nc4ccn5c(=O)[nH]nc5c4cc3-c3ccccc3)cc2)CCC1
How it was run: as §1

Measured: log2 fold change

MIEN1 (UniProt Q9BRT3)
inactive: [1] 0.006 | [2] -0.017 | [3] 0.015 | [4] 0.131 | [5] -0.015 | [6] 0.151 | [7] 0.06 | [8] -0.054 | [9] -0.068 | [10] 0.003

MRGBP (UniProt Q9NV56)
inactive: [1] 0.068 | [2] -0.168 | [3] 0.051 | [4] 0.079 | [5] -0.067 | [6] 0.089 | [7] -0.046 | [8] 0.012 | [9] 0.058 | [10] -0.047

MRPL23 (UniProt Q16540)
inactive: [1] 0.103 | [2] -0.097 | [3] -0.044 | [4] -0.052 | [5] 0.01 | [6] 0.029 | [7] -0.11 | [8] -0.019 | [9] -0.038 | [10] -0.025

MPDZ (UniProt O75970)
inactive: [1] -0.097 | [2] 0.245 | [3] -0.082 | [4] -0.059 | [5] -0.049 | [6] -0.084 | [7] 0.328 | [8] -0.057 | [9] -0.041 | [10] 0.112

MINDY3 (UniProt Q9H8M7)
inactive: [1] 0.006 | [2] -0.006 | [3] -0.035 | [4] 0.028 | [5] 0.095 | [6] 0.009 | [7] -0.035 | [8] 0.037 | [9] 0.006 | [10] 0.038

MICU1 isoform 3 (UniProt Q9BPX6)
inactive: [1] 0.01 | [2] -0.044 | [3] -0.02 | [4] -0.015 | [5] 0.027 | [6] 0.002 | [7] -0.015 | [8] -0.026 | [9] 0.06 | [10] -0.021

MICOS13 (UniProt Q5XKP0)
inactive: [1] 0.001 | [2] -0.055 | [3] -0.052 | [4] -0.036 | [5] -0.032 | [6] 0.092 | [7] -0.136 | [8] 0.078 | [9] -0.02 | [10] -0.03

MMS22L (UniProt Q6ZRQ5)
inactive: [1] 0.033 | [2] 0 | [3] 0.026 | [4] -0.015 | [5] -0.007 | [6] -0.086 | [7] -0.013 | [8] 0.041 | [9] -0.03 | [10] -0.06

MRM1 (UniProt Q6IN84)
inactive: [1] -0.027 | [2] -0.018 | [3] 0.011 | [4] -0.067 | [5] -0.028 | [6] 0.009 | [7] -0.025 | [8] 0.005 | [9] 0 | [10] 0.015

MLLT1 (UniProt Q03111)
inactive: [1] -0.003 | [2] -0.006 | [3] 0.031 | [4] 0.076 | [5] -0.01 | [6] 0.005 | [7] -0.054 | [8] -0.027 | [9] -0.01 | [10] -0.024

MON1B (UniProt Q7L1V2)
inactive: [1] -0.007 | [2] -0.016 | [3] -0.056 | [4] -0.029 | [5] 0.015 | [6] -0.017 | [7] 0.027 | [8] 0.009 | [9] -0.012 | [10] 0.005

MICALL2 (UniProt Q8IY33)
inactive: [1] 0.004 | [2] -0.029 | [3] 0.028 | [4] -0.013 | [5] -0.005 | [6] -0.037 | [7] -0.024 | [8] -0.006 | [9] 0.044 | [10] 0.001

Quoted at random: 2 records from the list, in no set order.
MMS22L (UniProt Q6ZRQ5)
inactive: [1] 0.033 | [2] 0 | [3] 0.026 | [4] -0.015 | [5] -0.007 | [6] -0.086 | [7] -0.013 | [8] 0.041 | [9] -0.03 | [10] -0.06

MLLT1 (UniProt Q03111)
inactive: [1] -0.003 | [2] -0.006 | [3] 0.031 | [4] 0.076 | [5] -0.01 | [6] 0.005 | [7] -0.054 | [8] -0.027 | [9] -0.01 | [10] -0.024

(further entries)

MIEF1 (UniProt Q9NQG6)
inactive: [1] 0.038 | [2] -0.072 | [3] 0.04 | [4] 0.017 | [5] -0.014 | [6] -0.108 | [7] -0.134 | [8] 0.082 | [9] 0.004 | [10] -0.016

MLH1 (UniProt P40692)
inactive: [1] 0 | [2] 0.014 | [3] -0.007 | [4] 0.03 | [5] 0.031 | [6] -0.043 | [7] 0.005 | [8] 0.061 | [9] 0.067 | [10] -0.046

MPHOSPH6 (UniProt Q99547)
inactive: [1] -0.064 | [2] 0.046 | [3] -0.004 | [4] -0.055 | [5] 0.068 | [6] -0.043 | [7] 0.016 | [8] 0.013 | [9] 0.006 | [10] -0.006

MRAS (UniProt O14807)
inactive: [1] -0.094 | [2] -0.062 | [3] -0.034 | [4] -0.105 | [5] -0.041 | [6] 0.042 | [7] 0.035 | [8] -0.074 | [9] -0.149 | [10] -0.022

MND1 (UniProt Q9BWT6)
inactive: [1] 0.02 | [2] 0.022 | [3] 0.041 | [4] 0.009 | [5] -0.012 | [6] 0.007 | [7] 0 | [8] 0 | [9] -0.002 | [10] 0.068

MKRN3 (UniProt Q13064)
inactive: [1] -0.064 | [2] 0.073 | [3] -0.022 | [4] -0.192 | [5] -0.093 | [6] -0.068 | [7] 0.202 | [8] 0.052 | [9] -0.06 | [10] 0.175

MRPL2 (UniProt Q5T653)
inactive: [1] -0.04 | [2] 0.019 | [3] -0.032 | [4] 0.04 | [5] -0.047 | [6] 0.01 | [7] -0.05 | [8] -0.003 | [9] 0.022 | [10] -0.063

MICB, A0A140T979
inactive: [1] -0.044 | [2] 0.042 | [3] 0.024 | [4] 0.033 | [5] -0.055 | [6] -0.06 | [7] -0.025 | [8] -0.004 | [9] 0.491 | [10] 0.21

MRPL18 (UniProt Q9H0U6)
inactive: [1] -0.007 | [2] 0.055 | [3] -0.006 | [4] -0.036 | [5] 0.039 | [6] -0.119 | [7] -0.092 | [8] 0.06 | [9] 0.094

MLST8 (UniProt Q9BVC4)
inactive: [1] -0.011 | [2] -0.006 | [3] 0.046 | [4] 0.079 | [5] -0.041 | [6] -0.058 | [7] 0.076 | [8] 0.043 | [9] -0.065 | [10] -0.067

MKI67 (UniProt P46013)
inactive: [1] -0.008 | [2] 0.032 | [3] 0.01 | [4] -0.007 | [5] -0.003 | [6] -0.02 | [7] -0.021 | [8] 0.031 | [9] -0.007 | [10] 0.025

MPZL1 (UniProt O95297)
inactive: [1] -0.03 | [2] 0.032 | [3] 0.033 | [4] -0.014 | [5] 0.018 | [6] 0.071 | [7] 0.035 | [8] -0.02 | [9] 0.026 | [10] 0.028

MPI (UniProt P34949)
inactive: [1] 0.002 | [2] -0.02 | [3] -0.035 | [4] 0.019 | [5] -0.022 | [6] -0.025 | [7] 0.009 | [8] 0.029 | [9] 0.016 | [10] -0.026

MKRN2 (UniProt Q9H000)
inactive: [1] -0.053 | [2] 0.015 | [3] -0.039 | [4] -0.115 | [5] 0.008 | [6] 0.023 | [7] 0.014 | [8] -0.039 | [9] -0.005 | [10] 0.021

MPDU1 (UniProt O75352)
inactive: [1] 0.047 | [2] -0.035 | [3] 0.035 | [4] 0.042 | [5] 0.034 | [6] -0.107 | [7] -0.078 | [8] 0.01 | [9] -0.007 | [10] -0.059

MPV17 (UniProt P39210)
inactive: [1] 0.225 | [2] 0.041 | [3] 0.152 | [4] 0.072 | [5] 0.095 | [6] -0.011 | [7] -0.116 | [8] -0.132 | [9] -0.125 | [10] 0.015

MIA3 (UniProt Q5JRA6)
inactive: [1] -0.021 | [2] -0.011 | [3] -0.045 | [4] 0.02 | [5] 0.043 | [6] 0.017 | [7] -0.008 | [8] -0.012 | [9] 0.031 | [10] 0.019

MRPL1 (UniProt Q9BYD6)
inactive: [1] -0.044 | [2] -0.012 | [3] -0.05 | [4] 0.011 | [5] 0.025 | [6] 0.012 | [7] 0.014 | [8] 0.035 | [9] -0.001 | [10] -0.015

Reference: the supplement of paper PMC10849652
